One substance from publication doi:10.1101/2024.01.10.575035 can be followed below.

The chains behind the UniProt entries cited, without tags or fusion partners.
UniProt P42336: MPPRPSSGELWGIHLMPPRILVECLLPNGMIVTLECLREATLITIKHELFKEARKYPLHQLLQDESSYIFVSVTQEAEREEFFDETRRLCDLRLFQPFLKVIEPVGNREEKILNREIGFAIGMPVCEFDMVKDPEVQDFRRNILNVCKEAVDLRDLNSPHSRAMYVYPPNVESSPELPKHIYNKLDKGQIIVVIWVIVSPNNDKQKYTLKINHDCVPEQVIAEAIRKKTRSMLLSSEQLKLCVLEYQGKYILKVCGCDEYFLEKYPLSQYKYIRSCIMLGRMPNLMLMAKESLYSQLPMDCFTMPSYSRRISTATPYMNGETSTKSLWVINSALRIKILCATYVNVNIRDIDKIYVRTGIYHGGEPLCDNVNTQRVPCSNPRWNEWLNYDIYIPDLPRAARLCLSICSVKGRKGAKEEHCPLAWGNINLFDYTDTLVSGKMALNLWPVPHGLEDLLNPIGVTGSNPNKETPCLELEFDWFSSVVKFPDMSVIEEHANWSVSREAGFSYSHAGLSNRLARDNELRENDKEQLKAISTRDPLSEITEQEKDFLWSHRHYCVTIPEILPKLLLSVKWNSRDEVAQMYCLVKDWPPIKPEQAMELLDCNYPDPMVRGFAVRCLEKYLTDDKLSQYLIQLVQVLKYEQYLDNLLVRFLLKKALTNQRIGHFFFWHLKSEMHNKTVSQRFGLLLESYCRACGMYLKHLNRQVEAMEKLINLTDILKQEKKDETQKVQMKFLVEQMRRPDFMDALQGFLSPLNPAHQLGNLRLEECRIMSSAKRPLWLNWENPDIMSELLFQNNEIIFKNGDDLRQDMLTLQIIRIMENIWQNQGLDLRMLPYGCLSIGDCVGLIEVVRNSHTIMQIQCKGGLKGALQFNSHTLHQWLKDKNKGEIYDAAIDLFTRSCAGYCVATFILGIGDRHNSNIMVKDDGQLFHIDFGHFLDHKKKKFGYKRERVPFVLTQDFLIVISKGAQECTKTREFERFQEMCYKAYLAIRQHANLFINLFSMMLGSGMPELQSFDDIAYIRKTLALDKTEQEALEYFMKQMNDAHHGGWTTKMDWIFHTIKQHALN
UniProt O00459: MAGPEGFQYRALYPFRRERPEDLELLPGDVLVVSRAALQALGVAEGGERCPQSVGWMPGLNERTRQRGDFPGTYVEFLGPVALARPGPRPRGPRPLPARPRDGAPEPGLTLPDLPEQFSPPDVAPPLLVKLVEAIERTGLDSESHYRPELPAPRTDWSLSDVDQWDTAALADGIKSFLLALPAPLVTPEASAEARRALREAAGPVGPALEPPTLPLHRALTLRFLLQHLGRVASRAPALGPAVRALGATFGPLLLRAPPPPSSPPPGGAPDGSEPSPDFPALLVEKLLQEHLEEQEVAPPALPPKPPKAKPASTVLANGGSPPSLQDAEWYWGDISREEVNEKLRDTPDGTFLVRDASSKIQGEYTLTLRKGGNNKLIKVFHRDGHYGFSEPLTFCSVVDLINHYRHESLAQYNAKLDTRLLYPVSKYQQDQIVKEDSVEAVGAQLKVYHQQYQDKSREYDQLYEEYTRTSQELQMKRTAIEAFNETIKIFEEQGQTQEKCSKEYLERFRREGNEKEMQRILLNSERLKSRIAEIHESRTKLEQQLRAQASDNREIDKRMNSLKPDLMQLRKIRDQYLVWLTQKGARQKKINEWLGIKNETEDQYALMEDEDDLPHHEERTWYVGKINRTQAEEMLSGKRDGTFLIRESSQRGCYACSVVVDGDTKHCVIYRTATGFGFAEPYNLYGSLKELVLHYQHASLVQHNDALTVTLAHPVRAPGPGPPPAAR

For this test, the target named is HA-tagged wild-type p110α (stably expressed in MDA-MB-231) (human) (UniProt P42336). Nature of the test: affinity purification with mass spectrometry.

No constants are given. Whether binding was seen depends on the method and setting. In cells and extracts the contact can be indirect. Here binding means that the protein was enriched with, or labelled near, the bait; the list need not be complete.

With “p85β adaptor subunit (endogenous, MDA-MB-231) (from UniProt O00459 1-728)”, the binding entry is recorded as “binds”.
